Laboratory results: PubChem BioAssay AID1159578 (Peter MacCallum Cancer Centre, 2015)
The deposit covers about 18,000 reagents; below is a random part of them. About 1,030 of all reagents (5.7%) were called active. 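Inactive calls also include pools with fewer than 3300 nuclei, whose migration was not assessed.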 Raw values vary from plate to plate and are shown uncorrected. Entries without a mark were called inactive. Not all columns of the deposit are shown. No sequences are given here.

Test: 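Genome-wide hunt for genes controlling movement of lymphatic endothelial cells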 (primary screen)
Cells: human lymphatic endothelial cells
Reagents: siRNA pool against human genes, 40 nM
Time to read-out: 48 h after transfection
Measurement: 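Cells stained with dye and imaged after a scratch; covered wound area and nuclei counted, duplicates averaged, migration set against mock wells and turned into a robust z-score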
Scale: migration robust z-score: higher = faster migration into the scratch; nuclei per well: higher = more cells in the well
Active means: 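Migration changed when robust z exceeds 2 or falls below -2 and mean nuclei number is at least 3300; otherwise not called changed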
Calls: active = migration changed; inactive = no migration change, or too few cells

Silencing of KLHL23 (kelch like family member 23) gave: migration robust z-score -1.19; migration class with cell-count check migration z between -2 and 2; enough cells; nuclei per well, duplicate mean 6090.
Knock-down of NNT (nicotinamide nucleotide transhydrogenase) gave: migration robust z-score -1.38; migration class with cell-count check migration z between -2 and 2; enough cells; nuclei per well, duplicate mean 5056.
After knock-down of ZNF563 (zinc finger protein 563) the results were migration robust z-score 0.39; migration class with cell-count check migration z between -2 and 2; enough cells; nuclei per well, duplicate mean 5771.
With knock-down of MAIP1 (matrix AAA peptidase interacting protein 1) the results were migration robust z-score -1.67; migration class with cell-count check migration z between -2 and 2; enough cells; nuclei per well, duplicate mean 3458.
For GSTO2 (glutathione S-transferase omega 2), the entry reads migration robust z-score -0.06; migration class with cell-count check migration z between -2 and 2; enough cells; nuclei per well, duplicate mean 5820.
With knock-down of PGRMC1 (progesterone receptor membrane component 1), the record shows migration robust z-score -0.36; migration class with cell-count check migration z between -2 and 2; enough cells; nuclei per well, duplicate mean 5826.
Depletion of CHST11 (carbohydrate sulfotransferase 11) came out at: migration robust z-score 0.17; migration class with cell-count check migration z between -2 and 2; enough cells; nuclei per well, duplicate mean 5681.

2 entries from above, showing only “nuclei per well, duplicate mean”.
KLHL23 (kelch like family member 23)	6090
NNT (nicotinamide nucleotide transhydrogenase)	5056

The listing continues:
IL36RN (interleukin 36 receptor antagonist) scored migration robust z-score -0.42; migration class with cell-count check migration z between -2 and 2; enough cells; nuclei per well, duplicate mean 5344.
After knock-down of TPP1 (tripeptidyl peptidase 1), the record shows migration robust z-score 0.8; migration class with cell-count check migration z between -2 and 2; enough cells; nuclei per well, duplicate mean 5856.
Silencing of CCDC198 (coiled-coil domain containing 198) came out at: migration robust z-score 1.14; migration class with cell-count check migration z between -2 and 2; enough cells; nuclei per well, duplicate mean 5492.
GPR17 (G protein-coupled receptor 17) scored migration robust z-score -0.11; migration class with cell-count check migration z between -2 and 2; enough cells; nuclei per well, duplicate mean 5106.
For ITGB1BP1 (integrin subunit beta 1 binding protein 1), the entry reads migration robust z-score 0.1; migration class with cell-count check migration z between -2 and 2; enough cells; nuclei per well, duplicate mean 6676.
Depletion of WDR47 (WD repeat domain 47) gave: migration robust z-score -1.2; migration class with cell-count check migration z between -2 and 2; enough cells; nuclei per well, duplicate mean 6219.
Depletion of GIMAP6 (GTPase, IMAP family member 6) resulted in: migration robust z-score 0.54; migration class with cell-count check migration z between -2 and 2; enough cells; nuclei per well, duplicate mean 6303.
